In the supplement of paper PMC4604168 (melanoma cell lines):
This is one part of the list. Repeats are few or missing, and single values can be far off.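 Imaging used 1,536-well plates; nuclei positive for cleaved PARP by antibody were divided by total DNA-stained nuclei to yield the apoptosis fraction. Doses for screening kept most cells viable, and cell lines differ markedly in resting and induced cleaved-PARP levels.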

What was measured:
Test in all cases: cleaved PARP positive nuclei fraction relative to DMSO control; melanoma cells; higher = more apoptosis
Conditions in all cases: library dose: low library concentration; 72 h
[1] = system: 501Mel
[2] = system: A101D
[3] = system: A2058
[4] = system: C32
[5] = system: CBRC008 (line from a melanoma biopsy)
[6] = system: CBRC014 (line from a melanoma biopsy)
[7] = system: CBRC016 (line from a melanoma biopsy)
[8] = system: CBRC017 (line from a melanoma biopsy)
[9] = system: COLO792
[10] = system: COLO800
[11] = system: COLO829
[12] = system: G361
[13] = system: IPC-298
[14] = system: IST-MEL1
[15] = system: LB2518-MEL
[16] = system: LOXIMVI

Structure (SMILES)	cleaved PARP positive nuclei fraction [1]	cleaved PARP positive nuclei fraction [2]	cleaved PARP positive nuclei fraction [3]	cleaved PARP positive nuclei fraction [4]	cleaved PARP positive nuclei fraction [5]	cleaved PARP positive nuclei fraction [6]	cleaved PARP positive nuclei fraction [7]	cleaved PARP positive nuclei fraction [8]	cleaved PARP positive nuclei fraction [9]	cleaved PARP positive nuclei fraction [10]	cleaved PARP positive nuclei fraction [11]	cleaved PARP positive nuclei fraction [12]	cleaved PARP positive nuclei fraction [13]	cleaved PARP positive nuclei fraction [14]	cleaved PARP positive nuclei fraction [15]	cleaved PARP positive nuclei fraction [16]
CNC(=O)c1cc(Oc2ccc(NC(=O)Nc3ccc(Cl)c(C(F)(F)F)c3)cc2)ccn1 [sorafenib] + COc1ccc2c(c1)CCC1C2CCC2(C)C(NCCCCCCN3C(=O)C=CC3=O)CCC12 [U73122] (first compound 0.4 µM, partner dose 0.4 µM)	67.8%	7140%	93.5%	89.9%	30.2%	117%	119%	132%	137%	26.8%	89.2%	64.3%	47.3%	36.3%	144%	49.4%
CCCS(=O)(=O)Nc1ccc(F)c(C(=O)c2c[nH]c3ncc(Cl)cc23)c1F + COc1ccc(COc2ccc(Cc3cnc(N)nc3N)cc2OC)cc1 [GW2580] (first compound 0.08 µM, partner dose 1 µM)	52.4%	19.8%	140%	91.3%	36.5%	132%	49.5%	93.6%	80%	66.7%	295%	181%	50.3%	54.8%	153%	61.5%
CN1CCN(c2ccc3nc(-c4c(N)c5c(F)cccc5[nH]c4=O)[nH]c3c2)CC1 [Dovitinib] + COc1ccc(-c2ccc3c(N4CCOCC4)nc(N4C[C@@H](C)O[C@@H](C)C4)nc3n2)cc1CO [KU0063794] (first compound 0.1 µM, partner dose 0.02 µM)	60.7%	23.5%	148%	72.6%	130%	82.4%	48.2%	69.7%	86.8%	163%	93.2%	40%	92.6%	68.2%	97.7%	49.4%
CN1CCN(c2ccc3nc(-c4c(N)c5c(F)cccc5[nH]c4=O)[nH]c3c2)CC1 [Dovitinib] + CCCCCCCCCCCC1=C(O)C(=O)C=C(O)C1=O [Embelin] (first compound 0.1 µM, partner dose 1.2 µM)	204%	16.2%	118%	86.9%	112%	110%	63.2%	161%	134%	71%	108%	113%	49.9%	87.7%	152%	151%
CS(=O)(=O)CCNCc1ccc(-c2ccc3ncnc(Nc4ccc(OCc5cccc(F)c5)c(Cl)c4)c3c2)o1 [lapatinib] + COc1ccc(COc2ccc(Cc3cnc(N)nc3N)cc2OC)cc1 [GW2580] (first compound 0.8 µM, partner dose 1 µM)	88%	70.5%	27.3%	240%	298%	110%	79.1%	262%	112%	136%	109%	102%	51%	177%	68.4%	191%
Nc1ncn([C@H]2C[C@H](O)[C@@H](CO)O2)c(=O)n1 [decitabine] + Oc1nc(-c2ccc(C(F)(F)F)cc2)nc2c1CSCC2 [XAV939] (first compound 0.1 µM, partner dose 2 µM)	83.4%	9.57%	70.7%	79.4%	60.6%	98%	72%	143%	132%	77.8%	218%	155%	151%	90.1%	89.9%	63.7%
Cc1cc(Nc2cc(N3CCN(C)CC3)nc(/C=C/c3ccccc3)n2)n[nH]1 + O=S(=O)(c1ccccc1)N(CC(F)(F)F)c1ccc(C(O)(C(F)(F)F)C(F)(F)F)cc1 [T0901317] (first compound 0.04 µM, partner dose 1.4 µM)	153%	36.6%	15.5%	86.5%	167%	112%	40.2%	121%	114%	202%	53.5%	80.7%	134%	137%	71.7%	84.6%
CC(C)C[C@H](NC(=O)[C@H](Cc1ccccc1)NC(=O)c1cnccn1)B(O)O [Bortezomib] + c1cc(-c2cnn3cc(-c4ccc(OCCN5CCCCC5)cc4)cnc23)ccn1 [Dorsomorphin] (first compound 0.001 µM, partner dose 0.4 µM)	145%	148%	118%	113%	242%	236%	361%	130%	92.6%	46.2%	82.1%	2030%	238%	204%	415%	91.7%
CC(C)C[C@H](NC(=O)[C@H](Cc1ccccc1)NC(=O)c1cnccn1)B(O)O [Bortezomib] + O=C(O)C(=O)Nc1sc2c(c1C(=O)O)CCNC2 [TCS401] (first compound 0.001 µM, partner dose 1.66667 µM)	179%	126%	94.4%	50.3%	939%	186%	520%	132%	72.6%	23.1%	319%	989%	63%	178%	61.1%	152%
CN1CCN(c2ccc3nc(-c4c(N)c5c(F)cccc5[nH]c4=O)[nH]c3c2)CC1 [Dovitinib] + Cc1cc([N+](=O)[O-])ccc1NS(=O)(=O)c1cc(Cl)ccc1Cl [FH535] (first compound 0.1 µM, partner dose 1 µM)	74.6%	21.3%	102%	83.3%	607%	167%	1670%	326%	127%	69.4%	19.8%	156%	99.7%	109%	82.4%	188%
Cn1c(=O)n(-c2ccc(C(C)(C)C#N)cc2)c2c3cc(-c4cnc5ccccc5c4)ccc3ncc21 + CCc1ccc(CCOc2ccc(CC3SC(=O)NC3=O)cc2)nc1 [pioglitazone] (first compound 0.004 µM, partner dose 2 µM)	62.5%	16.3%	126%	116%	152%	100%	91.6%	114%	72.6%	86.8%	92.8%	136%	85.5%	212%	43.9%	259%
CNC(=O)c1cc(Oc2ccc(NC(=O)Nc3ccc(Cl)c(C(F)(F)F)c3)cc2)ccn1 [sorafenib] + O=S(=O)(c1ccccc1)N(CC(F)(F)F)c1ccc(C(O)(C(F)(F)F)C(F)(F)F)cc1 [T0901317] (first compound 0.4 µM, partner dose 1.4 µM)	64.8%	14.4%	40.2%	37.8%	59.2%	78.8%	34.4%	93.8%	177%	63.6%	73.6%	88%	152%	42.4%	59.3%	225%
Cc1cc(Nc2cc(N3CCN(C)CC3)nc(/C=C/c3ccccc3)n2)n[nH]1 + CCN(CC)CCCCNc1ncc2cc(-c3cc(OC)cc(OC)c3)c(NC(=O)NC(C)(C)C)nc2n1 [PD173074] (first compound 0.04 µM, partner dose 0.1 µM)	74.2%	26%	47.7%	94.2%	22.5%	92.4%	42.8%	111%	178%	82.8%	237%	60.7%	128%	86.6%	71.2%	226%
Nc1ncn([C@H]2C[C@H](O)[C@@H](CO)O2)c(=O)n1 [decitabine] + CC(C)CCN1c2nc(Nc3cc(F)c(O)c(F)c3)ncc2N(C)C(=O)C1C [BID1870] (first compound 0.1 µM, partner dose 0.2 µM)	219%	60.6%	91.1%	76.2%	178%	104%	86.8%	72.3%	119%	157%	57.9%	106%	185%	147%	98%	52.2%
CC(C)C[C@H](NC(=O)[C@H](Cc1ccccc1)NC(=O)c1cnccn1)B(O)O [Bortezomib] + Oc1nc(-c2ccc(C(F)(F)F)cc2)nc2c1CSCC2 [XAV939] (first compound 0.001 µM, partner dose 2 µM)	65.5%	29.8%	139%	126%	234%	87.4%	39.6%	102%	108%	103%	98.9%	223%	47.6%	68.8%	300%	128%
CS(=O)(=O)CCNCc1ccc(-c2ccc3ncnc(Nc4ccc(OCc5cccc(F)c5)c(Cl)c4)c3c2)o1 [lapatinib] + Cn1cc(/C=C2\C(=O)Nc3cccnc32)c2ccccc21 [GW441756] (first compound 0.8 µM, partner dose 0.4 µM)	71.2%	13.1%	74.8%	62.9%	409%	192%	34.7%	95.7%	77.2%	105%	34%	88.3%	92.8%	181%	64.9%	80.3%
O=C(O)c1ccc2c(c1)nc(Nc1cccc(Cl)c1)c1ccncc12 + O=c1cc(-c2cccc3c2Sc2ccccc2S3)oc(N2CCOCC2)c1 [KU55933] (first compound 0.4 µM, partner dose 1 µM)	80%	53.5%	128%	162%	66.2%	167%	90.6%	186%	81.7%	45.2%	91.9%	86.9%	49.8%	197%	113%	128%
Nc1nc(F)nc2c1ncn2[C@@H]1O[C@H](CO)[C@@H](O)[C@@H]1O [fludarabine] + COc1ccc(COc2ccc(Cc3cnc(N)nc3N)cc2OC)cc1 [GW2580] (first compound 0.2 µM, partner dose 1 µM)	2300%	18.6%	129%	81%	124%	75.4%	22.9%	109%	103%	98.3%	104%	150%	336%	143%	47.4%	69.6%

Some entries already given, showing only cleaved PARP positive nuclei fraction [8], cleaved PARP positive nuclei fraction [10] and cleaved PARP positive nuclei fraction [6]:
Structure (SMILES) | cleaved PARP positive nuclei fraction [8] | cleaved PARP positive nuclei fraction [10] | cleaved PARP positive nuclei fraction [6]
CCCS(=O)(=O)Nc1ccc(F)c(C(=O)c2c[nH]c3ncc(Cl)cc23)c1F + COc1ccc(COc2ccc(Cc3cnc(N)nc3N)cc2OC)cc1 [GW2580] (first compound 0.08 µM, partner dose 1 µM) | 93.6% | 66.7% | 132%
CN1CCN(c2ccc3nc(-c4c(N)c5c(F)cccc5[nH]c4=O)[nH]c3c2)CC1 [Dovitinib] + CCCCCCCCCCCC1=C(O)C(=O)C=C(O)C1=O [Embelin] (first compound 0.1 µM, partner dose 1.2 µM) | 161% | 71% | 110%
